doi:10.1101/2025.08.30.673307 (bioRxiv, 2025)

Chains of the proteins cited; added tags and fusions are not shown. Lines headed by an entry give the natural chain unless they say otherwise; changes in a name come on top.
UniProt P51149: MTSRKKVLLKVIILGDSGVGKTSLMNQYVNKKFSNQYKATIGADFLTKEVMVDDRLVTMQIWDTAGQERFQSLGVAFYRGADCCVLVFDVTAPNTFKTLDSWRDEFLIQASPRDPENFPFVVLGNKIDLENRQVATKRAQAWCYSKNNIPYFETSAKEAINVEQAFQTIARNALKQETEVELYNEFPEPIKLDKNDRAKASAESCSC
UniProt P05556: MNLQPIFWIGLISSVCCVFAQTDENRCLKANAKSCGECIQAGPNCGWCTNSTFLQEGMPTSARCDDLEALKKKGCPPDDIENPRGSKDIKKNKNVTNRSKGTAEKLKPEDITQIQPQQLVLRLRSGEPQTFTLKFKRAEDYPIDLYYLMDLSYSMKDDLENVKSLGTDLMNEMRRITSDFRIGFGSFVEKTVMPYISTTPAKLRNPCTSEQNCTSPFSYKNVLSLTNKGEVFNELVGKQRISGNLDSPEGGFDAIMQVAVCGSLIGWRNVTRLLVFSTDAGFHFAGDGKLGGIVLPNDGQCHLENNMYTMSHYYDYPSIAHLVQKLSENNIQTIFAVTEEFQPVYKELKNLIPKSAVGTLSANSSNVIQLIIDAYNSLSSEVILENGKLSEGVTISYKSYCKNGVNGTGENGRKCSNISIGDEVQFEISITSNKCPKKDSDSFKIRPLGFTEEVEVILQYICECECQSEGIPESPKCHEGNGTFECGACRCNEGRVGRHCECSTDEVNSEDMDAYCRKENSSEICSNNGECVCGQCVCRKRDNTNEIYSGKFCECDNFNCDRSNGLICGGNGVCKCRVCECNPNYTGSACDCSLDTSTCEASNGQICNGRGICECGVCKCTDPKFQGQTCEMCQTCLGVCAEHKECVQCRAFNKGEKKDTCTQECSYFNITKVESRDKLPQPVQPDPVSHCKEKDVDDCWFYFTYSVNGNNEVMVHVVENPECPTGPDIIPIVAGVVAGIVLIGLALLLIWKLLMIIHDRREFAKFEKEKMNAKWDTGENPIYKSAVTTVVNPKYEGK

T1: GFP-STOM-WT (stable HEK293T line for co-IP MS) (human) (UniProt P27105)
T1 sequence: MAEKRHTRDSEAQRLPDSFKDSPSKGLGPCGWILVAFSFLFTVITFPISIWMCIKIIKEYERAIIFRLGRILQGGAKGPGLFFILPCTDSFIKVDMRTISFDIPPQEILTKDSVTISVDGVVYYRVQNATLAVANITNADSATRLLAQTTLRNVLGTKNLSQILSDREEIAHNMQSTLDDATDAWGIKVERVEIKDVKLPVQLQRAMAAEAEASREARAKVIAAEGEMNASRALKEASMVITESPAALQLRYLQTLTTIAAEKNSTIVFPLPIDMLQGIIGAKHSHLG

T2: APEX2-stomatin-V5 (human) (UniProt P27105)
T2 sequence: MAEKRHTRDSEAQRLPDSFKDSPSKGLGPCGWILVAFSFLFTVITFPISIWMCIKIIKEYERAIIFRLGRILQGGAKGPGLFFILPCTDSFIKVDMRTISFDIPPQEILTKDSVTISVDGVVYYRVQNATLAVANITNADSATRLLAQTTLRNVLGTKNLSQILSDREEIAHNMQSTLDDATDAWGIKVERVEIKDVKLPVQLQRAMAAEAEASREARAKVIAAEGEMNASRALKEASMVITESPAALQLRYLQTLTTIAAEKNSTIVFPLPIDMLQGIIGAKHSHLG


Legend:
[1] = molecular target: T1, GFP-STOM-WT (stable HEK293T line for co-IP MS) (human); assay: affinity purification with mass spectrometry
[2] = molecular target: T2, APEX2-stomatin-V5 (human); assay: proximity labelling

binding [1]	binding [2]	Molecule
binds	binds	Rab7a (from UniProt P51149 1-207)
binds	binds	integrin ITGB1 (from UniProt P05556 21-798) (receptor)
binds	binds	integrin ITGA6 (receptor, UniProt P23229 24-1130) FNLDTREDNVIRKYGDPGSLFGFSLAMHWQLQPEDKRLLLVGAPRAEALPLQRANRTGGLYSCDITARGPCTRIEFDNDADPTSESKEDQWMGVTVQSQGPGGKVVTCAHRYEKRQHVNTKQESRDIFGRCYVLSQNLRIEDDMDGGDWSFCDGRLRGHEKFGSCQQGVAATFTKDFHYIVFGAPGTYNWKGIVRVEQKNNTFFDMNIFEDGPYEVGGETEHDESLVPVPANSYLGLLFLTSVSYTDPDQFVYKTRPPREQPDTFPDVMMNSYLGFSLDSGKGIVSKDEITFVSGAPRANHSGAVVLLKRDMKSAHLLPEHIFDGEGLASSFGYDVAVVDLNKDGWQDIVIGAPQYFDRDGEVGGAVYVYMNQQGRWNNVKPIRLNGTKDSMFGIAVKNIGDINQDGYPDIAVGAPYDDLGKVFIYHGSANGINTKPTQVLKGISPYFGYSIAGNMDLDRNSYPDVAVGSLSDSVTIFRSRPVINIQKTITVTPNRIDLRQKTACGAPSGICLQVKSCFEYTANPAGYNPSISIVGTLEAEKERRKSGLSSRVQFRNQGSEPKYTQELTLKRQKQKVCMEETLWLQDNIRDKLRPIPITASVEIQEPSSRRRVNSLPEVLPILNSDEPKTAHIDVHFLKEGCGDDNVCNSNLKLEYKFCTREGNQDKFSYLPIQKGVPELVLKDQKDIALEITVTNSPSNPRNPTKDGDDAHEAKLIATFPDTLTYSAYRELRAFPEKQLSCVANQNGSQADCELGNPFKRNSNVTFYLVLSTTEVTFDTPDLDINLKLETTSNQDNLAPITAKAKVVIELLLSVSGVAKPSQVYFGGTVVGEQAMKSEDEVGSLIEYEFRVINLGKPLTNLGTATLNIQWPKEISNGKWLLYLVKVESKGLEKVTCEPQKEINSLNLTESHNSRKKREITEKQIDDNRKFSLFAERKYQTLNCSVNVNCVNIRCPLRGLDSKASLILRSRLWNSTFLEEYSKLNYLDILMRAFIDVTAAAENIRLPNAGTQVRVTVFPSKTVAQYSGVPWWIILVAILAGILMLALLVFILWKCGFFKRSRYDDSVPRYHAVRIRKEEREIKDEKYIDNLEKKQWITKWNENESYS

These are yes or no findings as the source states them, for the method shown. In cells and extracts the contact can be indirect. Here binding means that the protein was enriched with, or labelled near, the bait; the list need not be complete. Where a sequence is shown, tags or fusion partners need not be part of it.
